From PMC4120696
No constants are given. Whether binding was seen depends on the method and setting. Binding seen in cells or lysates may run through a third protein.

Amino acid sequences for entries named in this document (tags omitted).
UniProt O75367: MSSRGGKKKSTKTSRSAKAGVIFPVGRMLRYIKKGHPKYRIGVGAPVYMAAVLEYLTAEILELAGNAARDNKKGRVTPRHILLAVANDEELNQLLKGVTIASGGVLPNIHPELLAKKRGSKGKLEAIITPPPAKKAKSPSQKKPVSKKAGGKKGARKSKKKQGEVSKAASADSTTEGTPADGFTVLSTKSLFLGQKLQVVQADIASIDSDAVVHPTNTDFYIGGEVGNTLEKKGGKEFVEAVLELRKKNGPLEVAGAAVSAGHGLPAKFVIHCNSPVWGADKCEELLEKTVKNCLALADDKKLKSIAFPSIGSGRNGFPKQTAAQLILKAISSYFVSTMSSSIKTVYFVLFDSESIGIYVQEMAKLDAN
UniProt P04406: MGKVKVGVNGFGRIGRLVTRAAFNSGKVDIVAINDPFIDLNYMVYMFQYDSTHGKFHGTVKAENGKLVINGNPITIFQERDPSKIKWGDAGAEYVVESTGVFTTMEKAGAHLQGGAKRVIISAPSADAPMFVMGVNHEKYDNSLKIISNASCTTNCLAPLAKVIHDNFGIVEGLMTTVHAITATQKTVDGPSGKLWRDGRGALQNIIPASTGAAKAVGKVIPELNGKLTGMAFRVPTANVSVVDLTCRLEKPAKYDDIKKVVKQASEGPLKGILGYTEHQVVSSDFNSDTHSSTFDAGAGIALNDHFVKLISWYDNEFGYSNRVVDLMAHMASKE

Biological target: mH2A1 (human (endogenous in GM00254, GM00468 and GM6111 fibroblasts)) (UniProt O75367)
Experiment: co-IP; chromatin immunoprecipitation with anti-mH2A1 antibody (ab37264) and protein G magnetic beads from paraformaldehyde cross-linked, sonicated lysates of and triple-X human fibroblasts; washes with RIPA/SDS and with 500 mM NaCl RIPA at 4°C; cross-links reversed; protein content read by western blot

GAPDH (glyceraldehyde-3-phosphate dehydrogenase) (from UniProt P04406 1-335)
binding: no binding
